Measurements reported in PubChem BioAssay AID1224828 (NIAID, 2016)
The whole screen tested about 17,000 reagents; shown is a random part of them. 762 of them (4.5%) count as active. 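Active calls include both raised and lowered p65 entry, mostly lowered; wells with fewer than 50 cells lack a z-score.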 Raw values are not corrected between plates.

Assay: 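Find genes required for NF-kappaB p65 moving into the nucleus after LPS in mouse macrophages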 (primary screen)
Cell system: mouse RAW264.7 G9 macrophage reporter cells (GFP-p65, Tnf promoter-mCherry)
Knock-down reagent: siRNA pool against mouse genes, 100 nM
Time to read-out: 2 days siRNA transfection, then 40 min LPS before fixation
Treatment: LPS (Salmonella minnesota R595) at 10 ng/ml
Measurement: 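Microscopy ratio of nuclear to perinuclear-ring GFP-p65 signal, scaled to the plate median; gene score is the average of two replicate robust z-scores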
Direction: p65 translocation robust z-score: higher = more nuclear NF-kappaB p65 after LPS than the plate median; nuclear/cytoplasmic p65 ratio: higher = more nuclear NF-kappaB p65
Call rule: 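Called active when z exceeds 3.3 or falls under -1.56 (median of Tlr4 controls), giving activity score of at least 50; no calls for control wells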
Calls: active = hit (p65 shift raised or lowered); inactive = no clear change

gene	p65 translocation robust z-score	nuclear/cytoplasmic p65 ratio, rep 1	nuclear/cytoplasmic p65 ratio, rep 2	low cell count flag	outcome
Tcf21	-2.27	1.19	1.21	enough cells to score	active
Col5a1	-0.47	1.39	1.33	enough cells to score	inactive
Neurod6	-0.5	1.7	1.52	enough cells to score	inactive
Plscr3	-0.71	1.42	1.3	enough cells to score	inactive
Ap1b1	-0.53	1.48	1.65	enough cells to score	inactive
Spryd7	-2.14	1.1	1.16	enough cells to score	active
Gabpb1	-1.1	1.3	1.22	enough cells to score	inactive
Mxra8		1.64	1.54	fewer than 50 cells per well; well left out of scoring	inactive
Litaf	0.7	1.78	1.69	enough cells to score	inactive
Tmc6	-0.25	1.61	1.36	enough cells to score	inactive
Set	-0.61	1.41	1.52	enough cells to score	inactive
Uqcc1	-0.46	1.53	1.56	enough cells to score	inactive
Stag3	-0.4	1.37	1.05	enough cells to score	inactive
Unc50		1.49	1.32	fewer than 50 cells per well; well left out of scoring	inactive
Tox3	0.26	1.41	1.56	enough cells to score	inactive
Foxd4	0.06	1.62	1.45	enough cells to score	inactive
Rpl29	-1.7	1.19	1.07	enough cells to score	active
Mpc1		1.56	1.42	fewer than 50 cells per well; well left out of scoring	inactive
Slc25a27	-0.44	1.51	1.41	enough cells to score	inactive
Slc71a2	0.13	1.37	1.49	enough cells to score	inactive
Sft2d1	-0.82	1.26	1.36	enough cells to score	inactive
Fmc1	0.64	1.64	1.53	enough cells to score	inactive
Hnrnpll		1.35	1.48	fewer than 50 cells per well; well left out of scoring	inactive
Il12b	-0.11	1.45	1.33	enough cells to score	inactive
Gal	-0.17	1.55	1.49	enough cells to score	inactive
Mtss1	0.11	1.74	1.66	enough cells to score	inactive
Rbbp8	-0.64	1.51	1.53	enough cells to score	inactive
5330426L24Rik	0.47	1.36	1.59	enough cells to score	inactive
Ube2f	-0.3	1.24	1.54	enough cells to score	inactive
Taf15	0.43	1.6	1.56	enough cells to score	inactive
Or2p2	0.71	1.6	1.7	enough cells to score	inactive
Fbxo5	-1.31	1.36	1.19	enough cells to score	inactive
Ndufaf3		1.3	1.13	fewer than 50 cells per well; well left out of scoring	inactive
Luc7l3	-0.44	1.57	1.52	enough cells to score	inactive
Hspa1l	-0.4	1.34	1.37	enough cells to score	inactive
4930412M03Rik		1.08	1.27	fewer than 50 cells per well; well left out of scoring	inactive
Zfp37	-0.49	1.52	1.36	enough cells to score	inactive
Nlrp9c	-0.59	1.32	1.31	enough cells to score	inactive
Vamp7	-0.51	1.35	1.09	enough cells to score	inactive
Or12j3	1.82	1.69	1.34	enough cells to score	inactive
